Assay results published in the supplement of paper PMC10849652.
This is one part of the list.

By UniProt entry, the sequences of proteins in these tests, tags left out. Where a name states a change or a piece, a line headed by the entry shows the natural chain unless it says otherwise.
UniProt Q9NRW7: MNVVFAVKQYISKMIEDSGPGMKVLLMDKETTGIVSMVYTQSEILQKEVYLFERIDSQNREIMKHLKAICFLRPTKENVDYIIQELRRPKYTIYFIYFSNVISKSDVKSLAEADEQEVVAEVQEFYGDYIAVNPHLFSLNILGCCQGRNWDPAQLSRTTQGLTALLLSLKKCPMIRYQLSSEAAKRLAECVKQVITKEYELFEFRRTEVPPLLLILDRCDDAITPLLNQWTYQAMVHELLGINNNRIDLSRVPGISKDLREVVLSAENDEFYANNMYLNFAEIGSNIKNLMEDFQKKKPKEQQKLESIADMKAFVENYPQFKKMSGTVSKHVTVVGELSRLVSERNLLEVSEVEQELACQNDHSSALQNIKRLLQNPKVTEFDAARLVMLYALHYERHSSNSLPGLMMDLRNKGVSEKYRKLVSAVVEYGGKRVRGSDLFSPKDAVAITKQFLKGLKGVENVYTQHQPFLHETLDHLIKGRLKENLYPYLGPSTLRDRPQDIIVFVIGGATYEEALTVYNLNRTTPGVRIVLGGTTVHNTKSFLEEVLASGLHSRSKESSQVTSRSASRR
UniProt Q8TF74: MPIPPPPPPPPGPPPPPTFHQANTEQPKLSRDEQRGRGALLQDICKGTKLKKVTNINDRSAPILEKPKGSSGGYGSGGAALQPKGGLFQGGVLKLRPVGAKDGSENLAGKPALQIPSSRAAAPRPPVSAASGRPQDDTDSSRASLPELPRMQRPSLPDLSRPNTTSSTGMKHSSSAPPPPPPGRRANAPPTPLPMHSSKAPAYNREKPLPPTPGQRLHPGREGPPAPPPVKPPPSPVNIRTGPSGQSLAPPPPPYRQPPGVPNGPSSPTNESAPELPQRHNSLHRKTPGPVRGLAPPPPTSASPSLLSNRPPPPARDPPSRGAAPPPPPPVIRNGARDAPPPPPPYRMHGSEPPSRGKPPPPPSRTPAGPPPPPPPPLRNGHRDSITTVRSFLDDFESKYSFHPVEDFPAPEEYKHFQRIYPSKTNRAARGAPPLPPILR
UniProt Q709C8: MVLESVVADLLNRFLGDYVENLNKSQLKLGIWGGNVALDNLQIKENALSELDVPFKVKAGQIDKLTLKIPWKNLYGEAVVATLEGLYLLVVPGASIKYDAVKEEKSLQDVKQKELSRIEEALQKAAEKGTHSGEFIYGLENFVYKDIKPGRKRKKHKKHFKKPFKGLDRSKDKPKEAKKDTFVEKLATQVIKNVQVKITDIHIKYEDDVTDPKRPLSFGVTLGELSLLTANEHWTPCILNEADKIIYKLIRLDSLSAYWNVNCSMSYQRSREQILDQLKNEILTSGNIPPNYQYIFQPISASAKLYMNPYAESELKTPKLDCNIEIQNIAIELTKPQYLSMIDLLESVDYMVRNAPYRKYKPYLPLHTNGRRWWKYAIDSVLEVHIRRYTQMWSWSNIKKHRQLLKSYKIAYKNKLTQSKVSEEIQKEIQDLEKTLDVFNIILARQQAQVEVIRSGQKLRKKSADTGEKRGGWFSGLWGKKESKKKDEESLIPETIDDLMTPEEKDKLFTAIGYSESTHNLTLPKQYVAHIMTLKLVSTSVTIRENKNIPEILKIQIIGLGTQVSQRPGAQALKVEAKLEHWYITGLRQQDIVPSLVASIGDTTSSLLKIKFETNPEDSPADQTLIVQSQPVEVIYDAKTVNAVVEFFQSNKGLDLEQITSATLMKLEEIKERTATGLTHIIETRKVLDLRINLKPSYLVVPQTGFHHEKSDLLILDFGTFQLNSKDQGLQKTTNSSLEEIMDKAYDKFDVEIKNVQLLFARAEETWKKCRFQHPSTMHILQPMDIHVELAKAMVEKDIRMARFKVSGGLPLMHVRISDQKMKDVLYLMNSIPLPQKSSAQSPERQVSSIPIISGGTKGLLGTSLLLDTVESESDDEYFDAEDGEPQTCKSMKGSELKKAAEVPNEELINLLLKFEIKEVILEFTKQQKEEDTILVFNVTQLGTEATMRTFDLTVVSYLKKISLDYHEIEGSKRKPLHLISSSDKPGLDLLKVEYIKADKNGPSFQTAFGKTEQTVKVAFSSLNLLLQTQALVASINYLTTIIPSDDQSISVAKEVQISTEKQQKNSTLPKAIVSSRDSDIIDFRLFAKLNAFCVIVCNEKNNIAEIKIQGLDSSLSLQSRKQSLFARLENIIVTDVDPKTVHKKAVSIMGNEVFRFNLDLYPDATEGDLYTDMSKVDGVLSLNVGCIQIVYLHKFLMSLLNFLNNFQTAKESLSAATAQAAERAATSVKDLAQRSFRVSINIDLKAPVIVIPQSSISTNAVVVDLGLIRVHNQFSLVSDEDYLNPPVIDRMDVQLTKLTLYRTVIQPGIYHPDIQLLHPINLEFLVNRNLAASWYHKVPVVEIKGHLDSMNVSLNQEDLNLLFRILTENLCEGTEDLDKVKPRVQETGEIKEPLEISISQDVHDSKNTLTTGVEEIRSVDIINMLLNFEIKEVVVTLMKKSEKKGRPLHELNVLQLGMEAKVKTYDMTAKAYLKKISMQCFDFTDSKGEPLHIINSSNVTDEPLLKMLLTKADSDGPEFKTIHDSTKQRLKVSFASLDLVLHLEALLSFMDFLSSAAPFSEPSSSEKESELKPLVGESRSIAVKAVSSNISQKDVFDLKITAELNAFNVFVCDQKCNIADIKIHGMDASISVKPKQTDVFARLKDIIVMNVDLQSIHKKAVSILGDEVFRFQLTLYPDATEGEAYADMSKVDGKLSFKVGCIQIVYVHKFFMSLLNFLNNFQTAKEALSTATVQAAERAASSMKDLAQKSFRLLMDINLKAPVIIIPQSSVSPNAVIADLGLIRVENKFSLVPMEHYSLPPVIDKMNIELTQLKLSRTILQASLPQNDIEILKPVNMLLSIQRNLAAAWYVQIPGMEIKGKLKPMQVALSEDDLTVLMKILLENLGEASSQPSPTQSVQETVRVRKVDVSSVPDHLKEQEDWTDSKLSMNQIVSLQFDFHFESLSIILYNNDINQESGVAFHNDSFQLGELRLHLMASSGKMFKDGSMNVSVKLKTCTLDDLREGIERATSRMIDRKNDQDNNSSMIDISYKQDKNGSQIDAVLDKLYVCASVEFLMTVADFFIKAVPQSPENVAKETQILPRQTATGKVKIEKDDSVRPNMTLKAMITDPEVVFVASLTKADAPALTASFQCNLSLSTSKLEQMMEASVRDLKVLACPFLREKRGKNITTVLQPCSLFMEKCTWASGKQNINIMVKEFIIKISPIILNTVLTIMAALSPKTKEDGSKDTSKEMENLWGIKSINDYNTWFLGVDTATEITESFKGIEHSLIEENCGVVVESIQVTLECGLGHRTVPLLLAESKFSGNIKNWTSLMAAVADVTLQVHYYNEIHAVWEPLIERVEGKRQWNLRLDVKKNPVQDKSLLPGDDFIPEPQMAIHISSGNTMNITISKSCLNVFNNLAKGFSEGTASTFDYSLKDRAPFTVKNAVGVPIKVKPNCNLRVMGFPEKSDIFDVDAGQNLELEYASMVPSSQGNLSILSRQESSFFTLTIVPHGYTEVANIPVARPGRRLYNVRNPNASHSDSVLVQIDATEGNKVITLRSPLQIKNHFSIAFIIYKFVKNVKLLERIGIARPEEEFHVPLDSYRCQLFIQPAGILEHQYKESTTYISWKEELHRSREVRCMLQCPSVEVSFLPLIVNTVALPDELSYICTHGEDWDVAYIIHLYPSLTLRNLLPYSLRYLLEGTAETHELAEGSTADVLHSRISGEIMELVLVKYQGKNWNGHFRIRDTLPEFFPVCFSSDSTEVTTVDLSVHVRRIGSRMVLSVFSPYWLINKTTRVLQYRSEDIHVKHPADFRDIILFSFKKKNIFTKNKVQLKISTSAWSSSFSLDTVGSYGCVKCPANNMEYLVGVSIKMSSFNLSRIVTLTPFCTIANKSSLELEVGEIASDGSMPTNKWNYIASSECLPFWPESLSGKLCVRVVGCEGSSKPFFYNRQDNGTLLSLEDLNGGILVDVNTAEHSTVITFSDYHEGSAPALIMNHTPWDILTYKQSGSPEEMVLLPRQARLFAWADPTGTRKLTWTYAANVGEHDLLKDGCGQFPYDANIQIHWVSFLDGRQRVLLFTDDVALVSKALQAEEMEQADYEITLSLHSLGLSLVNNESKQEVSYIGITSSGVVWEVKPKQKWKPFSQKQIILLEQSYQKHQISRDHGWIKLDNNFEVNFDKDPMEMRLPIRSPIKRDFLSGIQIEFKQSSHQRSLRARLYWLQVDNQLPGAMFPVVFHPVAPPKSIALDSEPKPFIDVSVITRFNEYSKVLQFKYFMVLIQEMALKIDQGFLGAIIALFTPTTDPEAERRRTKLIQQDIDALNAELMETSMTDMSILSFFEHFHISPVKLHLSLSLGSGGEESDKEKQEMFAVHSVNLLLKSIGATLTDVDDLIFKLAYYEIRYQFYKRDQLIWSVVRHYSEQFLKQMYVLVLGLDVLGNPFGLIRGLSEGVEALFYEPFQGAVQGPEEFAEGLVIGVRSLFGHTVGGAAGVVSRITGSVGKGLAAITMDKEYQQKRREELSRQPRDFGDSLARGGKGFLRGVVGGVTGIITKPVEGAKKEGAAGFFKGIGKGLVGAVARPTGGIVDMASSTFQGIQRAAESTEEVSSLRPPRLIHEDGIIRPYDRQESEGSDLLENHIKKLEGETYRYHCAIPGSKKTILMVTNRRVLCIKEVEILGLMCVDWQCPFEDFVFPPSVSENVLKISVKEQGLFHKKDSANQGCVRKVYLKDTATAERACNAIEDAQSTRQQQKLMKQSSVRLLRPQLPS
UniProt Q2M389: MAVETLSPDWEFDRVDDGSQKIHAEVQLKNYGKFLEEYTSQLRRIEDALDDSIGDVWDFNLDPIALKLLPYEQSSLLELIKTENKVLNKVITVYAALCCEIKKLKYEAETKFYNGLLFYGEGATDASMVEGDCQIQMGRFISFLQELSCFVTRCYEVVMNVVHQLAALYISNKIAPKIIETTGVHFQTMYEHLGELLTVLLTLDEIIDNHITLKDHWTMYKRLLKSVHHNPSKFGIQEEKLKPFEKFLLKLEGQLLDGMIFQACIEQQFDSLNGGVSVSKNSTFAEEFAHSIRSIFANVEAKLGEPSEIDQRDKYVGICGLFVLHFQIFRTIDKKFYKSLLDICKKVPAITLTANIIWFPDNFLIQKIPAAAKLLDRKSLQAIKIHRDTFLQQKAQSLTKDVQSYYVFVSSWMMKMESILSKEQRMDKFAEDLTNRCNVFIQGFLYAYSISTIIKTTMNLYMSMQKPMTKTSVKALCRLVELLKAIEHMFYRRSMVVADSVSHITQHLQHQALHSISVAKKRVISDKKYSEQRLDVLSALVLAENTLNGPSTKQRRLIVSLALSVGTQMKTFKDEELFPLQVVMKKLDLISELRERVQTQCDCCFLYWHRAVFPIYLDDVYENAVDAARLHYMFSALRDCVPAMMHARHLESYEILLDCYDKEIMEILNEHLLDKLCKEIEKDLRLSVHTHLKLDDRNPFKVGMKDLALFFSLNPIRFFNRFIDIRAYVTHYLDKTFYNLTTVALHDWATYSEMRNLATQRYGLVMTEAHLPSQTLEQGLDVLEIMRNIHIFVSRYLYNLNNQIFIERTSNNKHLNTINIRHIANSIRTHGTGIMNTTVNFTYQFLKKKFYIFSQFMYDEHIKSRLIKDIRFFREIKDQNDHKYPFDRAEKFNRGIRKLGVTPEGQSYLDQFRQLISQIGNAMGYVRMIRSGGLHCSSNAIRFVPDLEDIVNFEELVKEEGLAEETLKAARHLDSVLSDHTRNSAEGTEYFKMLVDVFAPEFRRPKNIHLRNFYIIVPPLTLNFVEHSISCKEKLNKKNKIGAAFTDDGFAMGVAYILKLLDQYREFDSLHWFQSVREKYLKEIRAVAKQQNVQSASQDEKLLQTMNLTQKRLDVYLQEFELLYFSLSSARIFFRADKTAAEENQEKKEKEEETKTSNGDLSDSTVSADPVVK
UniProt Q92558: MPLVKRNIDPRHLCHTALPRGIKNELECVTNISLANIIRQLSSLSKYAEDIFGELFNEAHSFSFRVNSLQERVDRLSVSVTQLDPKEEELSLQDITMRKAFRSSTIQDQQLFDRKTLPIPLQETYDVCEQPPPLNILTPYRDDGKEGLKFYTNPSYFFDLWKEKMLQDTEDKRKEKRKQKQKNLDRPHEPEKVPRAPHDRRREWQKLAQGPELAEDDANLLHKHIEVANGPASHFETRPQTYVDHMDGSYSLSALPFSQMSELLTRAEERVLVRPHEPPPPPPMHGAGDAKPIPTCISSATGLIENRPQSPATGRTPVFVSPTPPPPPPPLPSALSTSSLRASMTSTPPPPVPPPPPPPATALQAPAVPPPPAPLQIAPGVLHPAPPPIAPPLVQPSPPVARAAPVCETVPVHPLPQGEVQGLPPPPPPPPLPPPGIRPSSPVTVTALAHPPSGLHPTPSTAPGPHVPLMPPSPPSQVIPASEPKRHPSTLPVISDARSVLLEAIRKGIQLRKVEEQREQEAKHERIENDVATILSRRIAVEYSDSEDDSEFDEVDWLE

Assays:
Test in all cases: log2 fold change, soluble protein after heating vs DMSO (PISA); higher = thermal stabilisation; K562 cells, 10 uM, 30 min; active = over 0.2 and 3.5 SD of the protein, either way, in both replicates (recomputed)
[1] = compound: CC[C@@H]1C(=O)N(C)c2cnc(Nc3ccc(C(=O)NC4CCN(C)CC4)cc3OC)nc2N1C1CCCC1
Summary of the method: (§1)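 Soluble protein was quantified by TMTpro 16plex LC-MS/MS after channel sums were equalised. It was obtained as the supernatant after 21,000xg for 90 min from pooled aliquots of K562 cells (2×10^6 cells/mL, 10 μM compound, 30 min) heated for 3 min across 48°C-58°C and extracted in PBS with 0.5% NP-40 at 4°C. Thermal stability values are relative to control samples and come from duplicates. They are given as log2 fold changes.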

[2] = compound: CC[C@@H]1C(=O)N(C)c2cnc(Nc3ccc(C(=O)N[C@H]4CC[C@H](N5CCN(CC6CC6)CC5)CC4)cc3OC)nc2N1C(C)C [volasertib]
Summary of the method: as §1

[3] = compound: CC[C@H](C)N1C=C(C2=C(C=C(C=C21)C3=CN=C(C=C3)N4CCNCC4)C(=O)NCC5=C(C=C(NC5=O)C)C)C
Summary of the method: as §1

[4] = compound: CC[C@H](C)[C@@H](C(=O)N[C@@H]([C@@H](C)O)C(=O)N[C@@H](CC(C)C)C(=O)[C@]1(CO1)C)NC(=O)[C@H]([C@@H](C)CC)N(C)C(=O)C [epoxomicin]
Summary of the method: as §1

[5] = compound: CCn1c(C(=O)N(C2CC2)C2CC2)cc2c3c(ncn3C)c(Nc3cc(C)n(C)n3)nc21
Summary of the method: as §1

[6] = compound: CCn1cc(-c2ccnc3[nH]c(-c4cccc(CN(C)C)c4)cc23)c(-c2ccc(NC(=O)N(C)C)cc2)n1
Summary of the method: as §1

[7] = compound: CN(C)CC(=O)Nc1ccc2[nH]c(=O)c3ccccc3c2c1
Summary of the method: as §1

[8] = compound: CN(CCOC1=CC=C(C=C1)C[C@H]2C(=O)NC(=O)S2)C3=CC=CC=N3 (racemic) [rosiglitazone]
Summary of the method: as §1

[9] = compound: CN1C2=C(C3=C1C(=O)N(N=C3)CC4=CC(=CC=C4)N)SC(=C2)S(=O)C
Summary of the method: as §1

[10] = compound: CN1CCC(CNc2ccc3ncc(-c4cccc(OC(F)(F)F)c4)n3n2)CC1
Summary of the method: as §1

[11] = compound: CN1CCN(CCOc2cc(OC3CCOCC3)c3c(Nc4c(Cl)ccc5c4OCO5)ncnc3c2)CC1 [saracatinib]
Summary of the method: as §1

[12] = compound: CN1CCN(c2nc(C3=C(c4c[nH]c5ccccc45)C(=O)NC3=O)c3ccccc3n2)CC1 [sotrastaurin]
Summary of the method: as §1

[13] = compound: CN1CC[C@H](c2c(O)cc(O)c3c(=O)cc(-c4ccccc4Cl)oc23)[C@H](O)C1 [alvocidib]
Summary of the method: as §1

[14] = compound: CN1CCc2c(c3ccccc3n2Cc2ccc(C(=O)NO)cc2)C1 [Tubastatin A]
Summary of the method: as §1

[15] = compound: CNC(=O)C1=CC=CC=C1NC2=NC(=NC=C2Cl)NC3=C(C=C(C=C3)N4CCOCC4)OC
Summary of the method: as §1

[16] = compound: CNC(=O)c1ccc(Nc2ncc(C(F)(F)F)c(NCc3nccnc3N(C)S(C)(=O)=O)n2)cc1 [defactinib]
Summary of the method: as §1

[17] = compound: CNCc1ccc(-c2[nH]c3cc(F)cc4c3c2CCNC4=O)cc1 [rucaparib]
Summary of the method: as §1

[18] = compound: CNc1nc(-c2ccc3c(N)n[nH]c3c2)cc(N2C[C@@H](C(=O)NC3CCCCC3)CC[C@H]2C)n1
Summary of the method: as §1

[19] = compound: COC(=O)N[C@@H](C)CNc1nccc(-c2cn(C(C)C)nc2-c2cc(Cl)cc(NS(C)(=O)=O)c2F)n1 [encorafenib]
Summary of the method: as §1

[20] = compound: COC(=O)[C@H](CCSC)NC(=O)C1=C(C=C(C=C1)NC[C@H](CS)N)C2=CC=CC=C2
Summary of the method: as §1

Measured: log2 fold change

VPS45 (UniProt Q9NRW7)
inactive: [1] -0.04 | [2] -0.193 | [3] 0.006 | [4] -0.012 | [5] -0.093 | [6] -0.031 | [7] 0.045 | [8] 0.018 | [9] -0.006 | [10] -0.024 | [11] -0.058 | [12] -0.001 | [13] -0.082 | [14] 0.045 | [15] -0.003 | [16] -0.049 | [17] 0.095 | [18] 0.125 | [19] 0.062 | [20] -0.004

VPS25 (UniProt Q9BRG1)
inactive: [1] 0.013 | [2] -0.069 | [3] 0.021 | [4] 0.002 | [5] 0.019 | [6] -0.019 | [7] 0.005 | [8] 0.038 | [9] -0.102 | [10] -0.027 | [11] -0.045 | [12] 0.002 | [13] -0.033 | [14] 0.008 | [15] -0.017 | [16] 0 | [17] 0.014 | [18] -0.005 | [19] -0.007 | [20] -0.039

WIPF2 (UniProt Q8TF74)
inactive: [1] 0 | [2] 0.048 | [3] 0.066 | [4] 0.029 | [5] -0.064 | [6] 0.04 | [7] -0.043 | [8] 0.007 | [9] -0.019 | [10] -0.141 | [11] 0.096 | [12] 0.046 | [13] 0.036 | [14] 0.042 | [15] -0.015 | [16] 0.008 | [17] -0.044 | [18] 0.01 | [19] -0.09 | [20] 0.014

VPS37B (UniProt Q9H9H4)
inactive: [1] -0.223 | [2] -0.086 | [3] 0.183 | [4] 0.042 | [5] -0.09 | [6] -0.269 | [7] 0.187 | [8] 0.051 | [9] 0.027 | [10] 0.109 | [11] -0.012 | [12] -0.035 | [14] 0.027 | [15] 0.04 | [16] -0.082 | [17] -0.007 | [18] 0.048 | [19] 0.068 | [20] -0.076

WDTC1 (UniProt Q8N5D0)
inactive: [1] 0.051 | [2] -0.236 | [3] 0.339 | [4] 0.078 | [5] -0.042 | [6] -0.021 | [7] -0.056 | [8] 0.007 | [9] 0.075 | [10] -0.018 | [11] 0.085 | [12] 0.007 | [13] -0.021 | [14] 0.036 | [15] 0.013 | [16] -0.038 | [17] 0.099 | [18] 0.023 | [19] -0.006 | [20] 0.025

WDR45B (UniProt Q5MNZ6)
inactive: [1] 0.062 | [2] -0.025 | [3] 0.019 | [4] 0.034 | [5] -0.046 | [6] -0.131 | [7] 0.012 | [8] 0.038 | [9] -0.043 | [10] 0.017 | [11] 0.067 | [12] -0.076 | [13] -0.014 | [14] -0.044 | [15] -0.033 | [16] -0.03 | [17] -0.09 | [18] 0.06 | [19] 0.048 | [20] -0.054

VPS13C (UniProt Q709C8)
inactive: [1] -0.108 | [2] -0.18 | [3] -0.015 | [4] -0.002 | [5] 0.006 | [6] -0.046 | [7] 0.009 | [8] 0.037 | [9] -0.051 | [10] -0.065 | [11] 0.029 | [12] 0.003 | [13] -0.027 | [14] -0.048 | [15] -0.02 | [16] -0.019 | [17] -0.019 | [18] -0.063 | [19] 0.019 | [20] 0.006

VDAC2 (UniProt P45880)
inactive: [1] 0.022 | [2] 0.049 | [3] -0.014 | [4] 0.002 | [5] 0.017 | [6] -0.017 | [7] -0.015 | [9] -0.031 | [10] 0.048 | [11] 0.046 | [12] 0.031 | [13] 0.012 | [14] -0.053 | [15] -0.012 | [16] -0.012 | [17] -0.013 | [18] -0.022 | [19] -0.015 | [20] 0.001

VPS4A (UniProt Q9UN37)
inactive: [1] -0.119 | [2] -0.15 | [3] 0.041 | [4] 0.078 | [5] 0 | [6] -0.01 | [7] -0.005 | [8] 0.114 | [9] -0.031 | [10] -0.086 | [11] 0.019 | [12] -0.004 | [13] -0.069 | [14] 0.002 | [15] -0.006 | [16] -0.021 | [17] 0.008 | [18] -0.006 | [19] 0.049 | [20] -0.024

VPS26C (UniProt O14972)
inactive: [1] 0.061 | [2] -0.19 | [3] 0.01 | [4] 0.022 | [5] 0.15 | [6] -0.02 | [7] -0.052 | [8] 0.014 | [9] -0.001 | [10] -0.061 | [11] 0.076 | [12] -0.128 | [13] -0.08 | [14] 0.016 | [15] 0.024 | [16] -0.108 | [17] 0.007 | [18] 0.015 | [19] 0.041 | [20] 0.116

WDR20 isoform 7 (UniProt Q8TBZ3)
inactive: [1] 0.09 | [2] 0.095 | [3] 0.027 | [4] 0.018 | [5] -0.041 | [6] -0.035 | [7] -0.005 | [8] -0.037 | [9] -0.092 | [10] -0.022 | [11] -0.011 | [12] -0.071 | [13] 0 | [14] -0.004 | [15] 0.028 | [16] 0.041 | [17] 0.096 | [18] -0.023 | [19] 0.022 | [20] 0.027

Random excerpt: two records from the list, in no set order.
VPS25 (UniProt Q9BRG1)
inactive: [1] 0.013 | [2] -0.069 | [3] 0.021 | [4] 0.002 | [5] 0.019 | [6] -0.019 | [7] 0.005 | [8] 0.038 | [9] -0.102 | [10] -0.027 | [11] -0.045 | [12] 0.002 | [13] -0.033 | [14] 0.008 | [15] -0.017 | [16] 0 | [17] 0.014 | [18] -0.005 | [19] -0.007 | [20] -0.039

VPS4A (UniProt Q9UN37)
inactive: [1] -0.119 | [2] -0.15 | [3] 0.041 | [4] 0.078 | [5] 0 | [6] -0.01 | [7] -0.005 | [8] 0.114 | [9] -0.031 | [10] -0.086 | [11] 0.019 | [12] -0.004 | [13] -0.069 | [14] 0.002 | [15] -0.006 | [16] -0.021 | [17] 0.008 | [18] -0.006 | [19] 0.049 | [20] -0.024

More entries:

WIPI1 (UniProt Q5MNZ9)
inactive: [1] -0.089 | [2] 0.023 | [3] 0.017 | [4] -0.057 | [5] 0.063 | [6] -0.066 | [8] 0.037 | [9] -0.038 | [10] -0.219 | [11] 0.07 | [12] 0.011 | [13] -0.056 | [14] 0.012 | [15] -0.046 | [17] 0.029 | [18] 0.01 | [19] -0.02

WASHC4 (UniProt Q2M389)
inactive: [1] -0.001 | [2] -0.228 | [3] 0.271 | [4] -0.057 | [5] -0.004 | [6] -0.02 | [7] 0.065 | [8] 0.1 | [9] 0.063 | [10] -0.273 | [11] 0.072 | [12] -0.101 | [13] -0.071 | [14] 0.109 | [15] 0.02 | [16] -0.024 | [17] 0.221 | [18] 0.078 | [19] 0.117 | [20] -0.043

VWA5A (UniProt O00534)
inactive: [1] -0.113 | [2] -0.169 | [3] -0.026 | [4] -0.008 | [5] -0.03 | [6] 0.058 | [7] 0.027 | [8] 0.061 | [9] -0.05 | [10] -0.061 | [11] 0.09 | [12] 0.003 | [13] -0.138 | [14] 0.054 | [15] 0.024 | [16] -0.117 | [17] -0.029 | [18] 0.02 | [19] -0.06 | [20] -0.068

WDR5 (UniProt P61964)
inactive: [1] 0.095 | [2] 0.135 | [3] -0.044 | [4] -0.114 | [5] -0.023 | [6] 0.099 | [7] -0.004 | [8] -0.085 | [9] 0.124 | [10] 0.091 | [11] 0.047 | [12] -0.011 | [13] 0.102 | [14] 0.019 | [15] 0.022 | [16] 0.078 | [17] 0.147 | [18] -0.004 | [19] 0.066 | [20] 0.017

WASF1 (UniProt Q92558)
inactive: [1] 0.089 | [2] -0.145 | [3] -0.123 | [4] 0.245 | [5] 0.012 | [6] -0.003 | [7] -0.022 | [8] 0 | [9] -0.062 | [10] -0.11 | [11] -0.037 | [13] -0.117 | [14] -0.016 | [15] -0.047 | [16] -0.054 | [17] 0.025 | [18] 0.064 | [19] 0 | [20] -0.006
